Reference: publication doi:10.1101/2021.11.02.467017
Results are given in words; binding and its absence hold for the method and conditions named. For some assays here: Binding seen in cells or lysates may run through a third protein. Some results given as binding are weak or reduced against the parent protein; the word gives no strength. For some assays here: Tags and fused reporters may be left off the sequences shown.

Amino acid sequences for entries named in this document (tags omitted). A change or cut given only in a name is not applied to a line headed by its entry. Residues count along the entry.
UniProt Q91VL8, whole entry, looked up, stated change not applied: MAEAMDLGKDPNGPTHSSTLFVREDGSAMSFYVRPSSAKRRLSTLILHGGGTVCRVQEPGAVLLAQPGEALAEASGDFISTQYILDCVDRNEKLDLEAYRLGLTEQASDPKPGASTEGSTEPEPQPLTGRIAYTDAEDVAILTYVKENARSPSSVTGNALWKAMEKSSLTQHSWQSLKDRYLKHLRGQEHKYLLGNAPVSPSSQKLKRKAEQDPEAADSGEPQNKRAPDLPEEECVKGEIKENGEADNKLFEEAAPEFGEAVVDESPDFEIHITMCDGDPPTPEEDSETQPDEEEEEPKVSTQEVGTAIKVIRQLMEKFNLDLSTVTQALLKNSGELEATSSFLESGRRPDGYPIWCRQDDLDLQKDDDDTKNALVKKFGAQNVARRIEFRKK
UniProt Q8C9X6, whole entry: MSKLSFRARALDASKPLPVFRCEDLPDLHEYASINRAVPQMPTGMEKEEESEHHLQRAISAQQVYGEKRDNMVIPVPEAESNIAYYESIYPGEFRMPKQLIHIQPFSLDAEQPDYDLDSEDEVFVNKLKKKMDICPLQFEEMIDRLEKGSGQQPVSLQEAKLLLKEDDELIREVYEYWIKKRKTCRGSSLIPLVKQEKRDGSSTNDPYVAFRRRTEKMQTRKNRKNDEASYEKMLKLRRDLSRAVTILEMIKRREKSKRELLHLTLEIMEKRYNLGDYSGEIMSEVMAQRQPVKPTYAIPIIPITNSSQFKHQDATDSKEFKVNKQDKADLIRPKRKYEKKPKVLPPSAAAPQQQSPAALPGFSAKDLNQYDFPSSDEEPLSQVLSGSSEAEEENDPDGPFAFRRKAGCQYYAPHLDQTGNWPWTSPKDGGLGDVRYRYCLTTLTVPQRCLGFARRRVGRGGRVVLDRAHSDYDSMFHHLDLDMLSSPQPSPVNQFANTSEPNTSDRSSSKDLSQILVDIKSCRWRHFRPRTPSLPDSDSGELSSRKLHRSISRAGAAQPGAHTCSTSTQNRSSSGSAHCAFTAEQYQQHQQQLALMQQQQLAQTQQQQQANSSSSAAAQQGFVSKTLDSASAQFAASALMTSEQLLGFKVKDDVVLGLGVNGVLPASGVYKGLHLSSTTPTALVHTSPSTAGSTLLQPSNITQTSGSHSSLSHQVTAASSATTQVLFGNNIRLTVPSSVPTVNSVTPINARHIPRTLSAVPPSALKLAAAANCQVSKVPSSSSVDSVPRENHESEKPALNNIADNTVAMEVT
UniProt Q9H2F5, 1-581: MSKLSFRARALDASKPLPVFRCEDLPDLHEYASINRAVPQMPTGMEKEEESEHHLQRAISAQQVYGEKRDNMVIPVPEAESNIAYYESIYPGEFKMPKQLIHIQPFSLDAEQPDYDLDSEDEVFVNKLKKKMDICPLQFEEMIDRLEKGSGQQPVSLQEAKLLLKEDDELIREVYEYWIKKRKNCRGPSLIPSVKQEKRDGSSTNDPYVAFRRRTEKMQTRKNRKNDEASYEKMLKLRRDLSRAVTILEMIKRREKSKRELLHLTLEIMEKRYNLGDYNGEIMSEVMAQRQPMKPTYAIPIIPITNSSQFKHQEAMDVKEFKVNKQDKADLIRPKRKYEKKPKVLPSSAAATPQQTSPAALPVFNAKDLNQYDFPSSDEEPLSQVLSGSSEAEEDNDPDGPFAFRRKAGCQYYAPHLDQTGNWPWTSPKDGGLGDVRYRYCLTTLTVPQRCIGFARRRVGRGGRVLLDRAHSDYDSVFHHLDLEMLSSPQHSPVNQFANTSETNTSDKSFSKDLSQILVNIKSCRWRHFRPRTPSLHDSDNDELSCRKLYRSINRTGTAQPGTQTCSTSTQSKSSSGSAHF
UniProt Q8C0I4, whole entry: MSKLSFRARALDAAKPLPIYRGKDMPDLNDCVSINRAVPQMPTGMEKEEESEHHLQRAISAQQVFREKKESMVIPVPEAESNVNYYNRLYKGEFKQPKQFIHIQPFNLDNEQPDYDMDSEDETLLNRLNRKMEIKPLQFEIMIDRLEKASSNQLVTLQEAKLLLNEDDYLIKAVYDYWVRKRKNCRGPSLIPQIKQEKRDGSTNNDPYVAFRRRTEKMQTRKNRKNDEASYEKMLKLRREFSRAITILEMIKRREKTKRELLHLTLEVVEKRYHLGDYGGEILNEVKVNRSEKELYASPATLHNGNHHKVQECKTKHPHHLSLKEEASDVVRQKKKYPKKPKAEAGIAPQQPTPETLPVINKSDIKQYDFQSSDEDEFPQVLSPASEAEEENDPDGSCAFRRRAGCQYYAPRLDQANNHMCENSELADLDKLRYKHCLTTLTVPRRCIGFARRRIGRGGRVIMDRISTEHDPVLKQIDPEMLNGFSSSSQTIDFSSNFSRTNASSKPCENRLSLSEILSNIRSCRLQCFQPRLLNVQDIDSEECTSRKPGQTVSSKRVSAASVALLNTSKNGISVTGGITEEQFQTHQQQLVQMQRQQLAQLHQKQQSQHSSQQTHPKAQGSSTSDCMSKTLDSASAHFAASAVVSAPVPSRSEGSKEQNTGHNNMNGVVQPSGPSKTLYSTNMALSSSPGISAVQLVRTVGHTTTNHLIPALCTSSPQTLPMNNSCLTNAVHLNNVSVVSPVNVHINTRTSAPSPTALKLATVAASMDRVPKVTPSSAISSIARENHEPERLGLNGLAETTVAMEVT
UniProt O35144, whole entry: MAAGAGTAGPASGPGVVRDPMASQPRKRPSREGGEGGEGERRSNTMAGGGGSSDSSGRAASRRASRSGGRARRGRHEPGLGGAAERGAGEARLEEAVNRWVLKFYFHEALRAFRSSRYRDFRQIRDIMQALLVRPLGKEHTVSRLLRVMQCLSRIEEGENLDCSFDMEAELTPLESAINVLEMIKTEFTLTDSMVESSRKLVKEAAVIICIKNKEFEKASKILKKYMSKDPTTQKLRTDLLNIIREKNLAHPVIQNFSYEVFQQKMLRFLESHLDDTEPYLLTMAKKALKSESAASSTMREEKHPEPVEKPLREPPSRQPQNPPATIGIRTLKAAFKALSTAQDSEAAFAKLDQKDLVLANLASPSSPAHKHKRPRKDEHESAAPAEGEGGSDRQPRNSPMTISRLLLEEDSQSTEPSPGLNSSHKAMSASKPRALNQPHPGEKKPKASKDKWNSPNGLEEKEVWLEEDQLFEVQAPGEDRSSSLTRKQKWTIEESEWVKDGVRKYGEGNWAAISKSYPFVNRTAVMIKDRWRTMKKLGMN
UniProt Q8CHK4, whole entry: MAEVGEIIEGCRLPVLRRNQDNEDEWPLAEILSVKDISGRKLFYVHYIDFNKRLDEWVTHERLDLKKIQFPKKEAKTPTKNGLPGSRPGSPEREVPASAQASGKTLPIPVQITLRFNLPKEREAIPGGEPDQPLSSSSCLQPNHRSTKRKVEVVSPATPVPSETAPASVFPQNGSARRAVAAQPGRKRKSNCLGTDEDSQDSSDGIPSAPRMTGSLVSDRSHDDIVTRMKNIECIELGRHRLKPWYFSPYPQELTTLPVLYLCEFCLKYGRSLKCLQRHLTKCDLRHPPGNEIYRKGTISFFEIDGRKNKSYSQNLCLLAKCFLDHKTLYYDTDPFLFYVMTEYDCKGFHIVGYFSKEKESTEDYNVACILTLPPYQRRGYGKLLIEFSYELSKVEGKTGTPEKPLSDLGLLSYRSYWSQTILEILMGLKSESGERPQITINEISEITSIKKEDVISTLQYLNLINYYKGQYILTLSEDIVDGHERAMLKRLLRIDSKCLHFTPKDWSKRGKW

Columns and labels:
HA-Rap1-I312R (mouse) = HA-Rap1-I312R (mouse) (UniProt Q91VL8); test: co-IP
Flag-Epc1 (mouse) = Flag-Epc1 (mouse) (UniProt Q8C9X6); test: co-IP
[1] = target: GST-tagged EPC1 (aa 1-581) (UniProt Q9H2F5); test: pull-down

binding (Flag-Epc1 (mouse)) | Molecule | binding (HA-Rap1-I312R (mouse)) | also measured
– | Myc-Epc1 (pCMV6-MCS-Myc-Flag, Origene) (from UniProt Q8C9X6 1-813) | binds | –
– | Myc-Epc2 (pCMV6-MCS-Myc-Flag, Origene) (from UniProt Q8C0I4 1-808) | binds | –
no binding | Myc-TRF2 (from UniProt O35144 1-541) | – | –
binds | Myc-Tip60 (pLPC-N-Myc) (from UniProt Q8CHK4 1-513) | – | –
– | His-RAP1 (protein, UniProt Q9NYB0 1-399) MAEAMDLGKDPNGPTHSSTLFVRDDGSSMSFYVRPSPAKRRLSTLILHGGGTVCRVQEPGAVLLAQPGEALAEASGDFISTQYILDCVERNERLELEAYRLGPASAADTGSEAKPGALAEGAAEPEPQRHAGRIAFTDADDVAILTYVKENARSPSSVTGNALWKAMEKSSLTQHSWQSLKDRYLKHLRGQEHKYLLGDAPVSPSSQKLKRKAEEDPEAADSGEPQNKRTPDLPEEEYVKEEIQENEEAVKKMLVEATREFEEVVVDESPPDFEIHITMCDDDPPTPEEDSETQPDEEEEEEEEKVSQPEVGAAIKIIRQLMEKFNLDLSTVTQAFLKNSGELEATSAFLASGQRADGYPIWSRQDDIDLQKDDEDTREALVKKFGAQNVARRIEFRKK | – | binding [1]: binds
